# Assay results published in patent publication US20250092084A1, “C7, C12, AND C16 SUBSTITUTED NEUROACTIVE STEROIDS AND THEIR METHODS OF USE” (Sage Therapeutics, Inc., priority 2016, published 2025).
# At least one compound was matched to its structure with a doubt left.
# Target: rat brain cortical membranes (GABA receptor complex, [35S]-TBPS binding)
# Test: Steroid inhibition of [35S]-TBPS binding
# Details: 3 nM [35S]-TBPS, in the presence of 5 mM GABA
# Method: [^35S]-t-Butylbicyclophosphorothionate (TBPS) binding assays using rat brain cortical membranes in the presence of 5 mM GABA has been described (Gee et al, J Pharmacol. Exp. Ther. 1987, 241, 346-353; Hawkinson et al, Mol. Pharmacol. 1994, 46, 977-985; Lewin, A. H et al., Mol. Pharmacol. 1989, 35, 189-194).
# Briefly, cortices are rapidly removed following decapitation of carbon dioxide-anesthetized Sprague-Dawley rats (200-250 g). The cortices are homogenized in 10 volumes of ice-cold 0.32 M sucrose using a glass/teflon homogenizer and centrifuged at 1500×g for 10 min at 4° C. The resultant supernatants are centrifuged at 10,000×g for 20 min at 4° C. to obtain the P2 pellets. The P2 pellets are resuspended in 200 mM NaCl/50 mM Na—K phosphate pH 7.4 buffer and centrifuged at 10,000×g for 10 min at 4° C. This washing procedure is repeated twice and the pellets are resuspended in 10 volumes of buffer. Aliquots ([…]) of the membrane suspensions are incubated with 3 nM [^35S]-TBPS and […] aliquots of test drug dissolved in dimethyl sulfoxide (DMSO) (final 0.5%) in the presence of 5 mM GABA. The incubation is brought to a final volume of 1.0 mL with buffer. Nonspecific binding is determined in the presence of […] and ranged from 15 to 25%. Following a 90 min incubation at room temp, the assays are terminated by filtration through glass fiber filters (Schleicher and Schuell No. 32) using a cell harvester (Brandel) and rinsed three times with ice-cold buffer. Filter bound radioactivity is measured by liquid scintillation spectrometry. Non-linear curve fitting of the overall data for each drug averaged for each concentration is done using Prism (GraphPad). […] The concentration of test compound producing 50% inhibition (IC50) of specific binding and the maximal extent of inhibition (Imax) are determined for the individual experiments with the same model used for the overall data and then the means±SEMs of the individual experiments are calculated.
# Various compounds are or can be screened to determine their potential as modulators of [^35S]-TBPS binding in vitro. These assays are or can be performed in accordance with the above discussed procedures.
row,Structure (SMILES),IC50
1,Cc1nnn(CC(=O)[C@@H]2CC[C@H]3[C@@H]4[C@H](C)C[C@H]5C[C@](C)(O)CC[C@]5(C)[C@H]4CC[C@]23C)n1 [Compound 35],≥ 500 nM
2,Cc1nnnn1CC(=O)[C@@H]1CC[C@H]2[C@@H]3[C@H](C)C[C@H]4C[C@](C)(O)CC[C@]4(C)[C@H]3CC[C@]12C [Compound 37],≥ 500 nM
3,CC(=O)[C@H]1CC[C@H]2[C@@H]3CC[C@H]4C[C@](C)(O)CC[C@]4(C)[C@H]3C[C@@H](O)[C@]12C [Compound 45],≥ 500 nM
4,CO[C@@H]1C[C@H]2[C@@H](CC[C@@H]3C[C@](C)(O)CC[C@@H]32)[C@@H]2CC[C@H](C(=O)Cn3nnc(C)n3)[C@@]12C [Compound 58],50 to 100 nM
5,CO[C@@H]1C[C@H]2[C@@H](CC[C@H]3C[C@](C)(O)CC[C@@]32C)[C@@H]2CC[C@H](C(=O)Cn3nnc(C)n3)[C@@]12C [Compound 60],100 to 500 nM
